Assay results reported in publication PMC5840378.
Results are given in words; binding and its absence hold for the method and conditions named. In cells and extracts the contact can be indirect. Some binding calls cover weakened binding; strength is not graded here.

By UniProt entry, the sequences of proteins in these tests, tags left out.
UniProt P99999: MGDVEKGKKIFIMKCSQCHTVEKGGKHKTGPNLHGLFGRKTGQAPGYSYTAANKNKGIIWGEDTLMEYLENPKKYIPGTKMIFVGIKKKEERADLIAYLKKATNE
UniProt P62258: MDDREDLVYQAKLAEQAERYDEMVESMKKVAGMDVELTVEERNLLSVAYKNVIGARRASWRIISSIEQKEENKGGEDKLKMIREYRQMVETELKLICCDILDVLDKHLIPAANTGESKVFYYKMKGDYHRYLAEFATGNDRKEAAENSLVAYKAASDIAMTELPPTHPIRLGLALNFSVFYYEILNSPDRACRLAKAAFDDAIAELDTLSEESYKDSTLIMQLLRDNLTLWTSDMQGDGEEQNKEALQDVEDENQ

Target: cytochrome c (Cc), endogenous, cytosolic fraction of CPT-treated HeLa cells (human (endogenous in HeLa)) (UniProt P99999)
Test: co-IP; rabbit anti-human Cc serum added to 300 μg cytosolic fraction of HeLa cells treated with 20 μM CPT for 4 h; Protein A Sepharose; western blot for 14-3-3ε; IgG as control

With “14-3-3ε, endogenous, cytosolic fraction of HeLa cells (from UniProt P62258 1-255)” the binding was “binds”.
